Measurements reported in article PMC5507668.
These are yes or no findings as the source states them, for the method shown. Binding seen in cells or lysates may run through a third protein. Some results given as binding are weak or reduced against the parent protein; the word gives no strength. For some of these results: Sequences can lack the tags named with a protein.

The chains behind the UniProt entries cited, without tags or fusion partners.
UniProt P29341: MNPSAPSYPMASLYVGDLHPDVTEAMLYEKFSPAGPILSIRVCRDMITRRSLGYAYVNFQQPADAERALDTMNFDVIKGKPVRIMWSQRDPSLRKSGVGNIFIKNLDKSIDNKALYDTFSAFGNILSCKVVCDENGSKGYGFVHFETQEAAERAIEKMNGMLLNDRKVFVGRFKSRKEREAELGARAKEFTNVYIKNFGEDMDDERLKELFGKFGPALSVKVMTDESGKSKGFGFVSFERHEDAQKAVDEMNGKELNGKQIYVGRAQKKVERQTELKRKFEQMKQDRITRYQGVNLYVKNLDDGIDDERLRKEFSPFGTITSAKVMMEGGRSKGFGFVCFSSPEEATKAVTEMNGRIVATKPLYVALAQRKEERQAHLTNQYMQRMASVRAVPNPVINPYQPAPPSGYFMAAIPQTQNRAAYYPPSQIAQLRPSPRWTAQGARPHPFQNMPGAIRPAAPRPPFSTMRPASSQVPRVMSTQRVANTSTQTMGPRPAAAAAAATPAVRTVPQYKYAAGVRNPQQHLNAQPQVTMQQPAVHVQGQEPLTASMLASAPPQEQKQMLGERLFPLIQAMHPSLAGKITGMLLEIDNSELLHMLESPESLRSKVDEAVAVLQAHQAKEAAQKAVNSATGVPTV

Assays:
[1] = molecular target: T1, FLAG-tagged wild-type Zfp36 (UniProt P22893); experiment: co-IP; 293T cells co-transfected with HA-Pabpc1 and Zfp36-FLAG; IP with an anti-FLAG antibody or IgG in the presence or absence of RNase1 (0.5 U/ul); Western blot
T1 sequence: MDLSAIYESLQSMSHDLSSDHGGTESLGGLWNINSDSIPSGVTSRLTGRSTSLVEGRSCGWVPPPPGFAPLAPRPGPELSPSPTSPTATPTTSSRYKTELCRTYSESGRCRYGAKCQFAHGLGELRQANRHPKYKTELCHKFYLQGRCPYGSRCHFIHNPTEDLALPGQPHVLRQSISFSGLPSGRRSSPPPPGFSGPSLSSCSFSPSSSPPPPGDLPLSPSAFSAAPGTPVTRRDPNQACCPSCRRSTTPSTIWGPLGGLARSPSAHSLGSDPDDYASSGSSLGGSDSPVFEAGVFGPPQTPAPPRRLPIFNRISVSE

[2] = molecular target: T1, FLAG-tagged wild-type Zfp36; experiment: co-IP; 293T cells co-transfected with FLAG-tagged Zfp36 constructs and HA-tagged Pabpc1; IP with an anti-FLAG antibody or an IgG, with (or also without) RNaseA; Western blot
[3] = molecular target: T2, FLAG-tagged RNA-binding-deficient Zfp36 mutant Zfp36(F118N) (UniProt P22893); experiment: as above
T2 sequence: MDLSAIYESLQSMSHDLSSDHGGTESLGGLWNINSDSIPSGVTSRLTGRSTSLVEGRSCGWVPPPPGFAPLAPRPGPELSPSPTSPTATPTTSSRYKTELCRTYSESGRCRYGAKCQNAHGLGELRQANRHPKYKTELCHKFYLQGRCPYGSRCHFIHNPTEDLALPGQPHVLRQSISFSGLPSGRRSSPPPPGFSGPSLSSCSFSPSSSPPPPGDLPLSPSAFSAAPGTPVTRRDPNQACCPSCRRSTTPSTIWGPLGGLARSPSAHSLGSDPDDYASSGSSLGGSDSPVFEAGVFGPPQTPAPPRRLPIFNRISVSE

[4] = molecular target: T3, FLAG-tagged Zfp36-mF (Zfp36 amino acids 39 to 196 with F118N), in 293T cells (UniProt P22893); experiment: as above
T3 sequence: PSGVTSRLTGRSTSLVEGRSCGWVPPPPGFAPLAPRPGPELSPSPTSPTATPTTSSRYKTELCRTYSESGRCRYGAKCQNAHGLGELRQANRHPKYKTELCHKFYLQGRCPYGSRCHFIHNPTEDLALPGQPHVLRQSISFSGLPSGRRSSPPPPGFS

[5] = molecular target: T4, endogenous Zfp36 with a knocked-in V5 epitope tag (Zfp36-V5) (mouse (endogenous in BMDMs of the knock-in mouse)) (UniProt P22893); experiment: co-IP; IP with an anti-V5 antibody from BMDMs of Zfp36-V5 or wild-type mice, 100 ng/ml LPS for 4 hr, with or without RNaseA; Western blot
T4 sequence: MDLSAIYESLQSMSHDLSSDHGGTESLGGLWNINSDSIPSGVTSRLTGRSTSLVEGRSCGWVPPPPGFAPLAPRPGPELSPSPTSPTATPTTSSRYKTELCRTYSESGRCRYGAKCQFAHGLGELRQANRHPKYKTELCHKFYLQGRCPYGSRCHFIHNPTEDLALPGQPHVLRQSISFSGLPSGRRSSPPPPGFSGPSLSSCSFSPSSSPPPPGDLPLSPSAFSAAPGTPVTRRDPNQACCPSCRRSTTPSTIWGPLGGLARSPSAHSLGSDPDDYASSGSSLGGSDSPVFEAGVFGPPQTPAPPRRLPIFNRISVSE

[6] = molecular target: T4, endogenous Zfp36 with a knocked-in V5 epitope tag (Zfp36-V5) (mouse (endogenous in BMDMs of the knock-in mouse)); experiment: co-IP; BMDMs from Zfp36-V5 mice transduced with an empty retroviral vector or one expressing Zfp36-mF, LPS for 4 hr; IP with an anti-V5 antibody with RNaseA (200 ng/ml); Western blot of endogenous Pabpc1, quantified by ImageJ
[7] = molecular target: cytoplasmic poly(A)-binding protein 1 (Pabpc1), endogenous (mouse (endogenous in BMDMs)) (UniProt P29341); experiment: as above

With “HA-tagged Pabpc1 (from UniProt P29341 1-636)” the binding [1] was “binds”, the binding [2] was “binds” and the binding [3] was “binds”. The binding [4] was “binds”.

“cytoplasmic poly(A)-binding protein 1 (Pabpc1), endogenous (from UniProt P29341 1-636)” was tested, and the binding [5] was “binds” and the binding [6] was “binds”.

B1: Zfp36-mF fragment expressed in BMDMs from a retroviral vector (domain or fragment, UniProt P22893 39-196)
chain: PSGVTSRLTGRSTSLVEGRSCGWVPPPPGFAPLAPRPGPELSPSPTSPTATPTTSSRYKTELCRTYSESGRCRYGAKCQNAHGLGELRQANRHPKYKTELCHKFYLQGRCPYGSRCHFIHNPTEDLALPGQPHVLRQSISFSGLPSGRRSSPPPPGFS
With B1 the binding [7] was “binds”.
